Measurements taken from the supplement of paper PMC6411743.
± gives the standard deviation of the averaged measurements. Only a part is listed here, and it is no random draw.

The chains behind the UniProt entries cited, without tags or fusion partners. Where a name states a change or a piece, a line headed by the entry shows the natural chain unless it says otherwise.
UniProt Q96TA1: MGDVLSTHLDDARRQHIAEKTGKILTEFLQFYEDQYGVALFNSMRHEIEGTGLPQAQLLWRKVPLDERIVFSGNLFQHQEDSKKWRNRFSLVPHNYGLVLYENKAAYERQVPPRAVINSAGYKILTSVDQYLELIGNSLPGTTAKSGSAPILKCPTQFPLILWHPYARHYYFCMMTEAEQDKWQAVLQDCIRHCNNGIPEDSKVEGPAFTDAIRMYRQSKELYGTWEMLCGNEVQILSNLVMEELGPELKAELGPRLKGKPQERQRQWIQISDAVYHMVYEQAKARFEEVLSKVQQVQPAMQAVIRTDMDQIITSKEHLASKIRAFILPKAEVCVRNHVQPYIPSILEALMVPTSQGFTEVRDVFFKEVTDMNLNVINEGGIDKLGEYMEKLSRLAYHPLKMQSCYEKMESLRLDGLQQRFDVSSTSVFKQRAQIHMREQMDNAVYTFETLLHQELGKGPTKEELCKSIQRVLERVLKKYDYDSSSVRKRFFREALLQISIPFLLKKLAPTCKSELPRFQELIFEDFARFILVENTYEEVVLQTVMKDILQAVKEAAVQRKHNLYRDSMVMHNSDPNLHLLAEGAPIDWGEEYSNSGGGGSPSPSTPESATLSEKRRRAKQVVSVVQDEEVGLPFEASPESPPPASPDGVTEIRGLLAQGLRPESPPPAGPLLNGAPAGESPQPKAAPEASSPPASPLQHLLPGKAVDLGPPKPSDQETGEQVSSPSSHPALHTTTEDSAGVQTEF
UniProt Q9BTZ2: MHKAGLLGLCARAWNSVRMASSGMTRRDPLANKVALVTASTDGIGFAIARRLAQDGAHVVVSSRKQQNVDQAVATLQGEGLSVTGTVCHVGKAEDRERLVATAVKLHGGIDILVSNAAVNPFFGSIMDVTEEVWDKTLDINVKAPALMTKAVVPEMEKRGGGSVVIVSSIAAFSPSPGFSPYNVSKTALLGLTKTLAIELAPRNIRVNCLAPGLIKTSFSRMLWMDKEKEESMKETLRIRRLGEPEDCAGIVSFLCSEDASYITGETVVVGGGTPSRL
UniProt Q9BWF3: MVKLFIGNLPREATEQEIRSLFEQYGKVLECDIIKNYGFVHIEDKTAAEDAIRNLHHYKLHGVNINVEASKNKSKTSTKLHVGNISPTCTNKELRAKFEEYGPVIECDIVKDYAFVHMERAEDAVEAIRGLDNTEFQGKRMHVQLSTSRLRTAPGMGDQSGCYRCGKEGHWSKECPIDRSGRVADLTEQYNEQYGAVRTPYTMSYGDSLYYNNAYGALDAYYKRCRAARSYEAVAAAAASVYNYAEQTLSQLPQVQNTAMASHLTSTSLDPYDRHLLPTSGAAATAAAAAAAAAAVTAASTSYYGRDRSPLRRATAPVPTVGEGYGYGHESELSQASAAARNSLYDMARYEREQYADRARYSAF
UniProt Q96S52: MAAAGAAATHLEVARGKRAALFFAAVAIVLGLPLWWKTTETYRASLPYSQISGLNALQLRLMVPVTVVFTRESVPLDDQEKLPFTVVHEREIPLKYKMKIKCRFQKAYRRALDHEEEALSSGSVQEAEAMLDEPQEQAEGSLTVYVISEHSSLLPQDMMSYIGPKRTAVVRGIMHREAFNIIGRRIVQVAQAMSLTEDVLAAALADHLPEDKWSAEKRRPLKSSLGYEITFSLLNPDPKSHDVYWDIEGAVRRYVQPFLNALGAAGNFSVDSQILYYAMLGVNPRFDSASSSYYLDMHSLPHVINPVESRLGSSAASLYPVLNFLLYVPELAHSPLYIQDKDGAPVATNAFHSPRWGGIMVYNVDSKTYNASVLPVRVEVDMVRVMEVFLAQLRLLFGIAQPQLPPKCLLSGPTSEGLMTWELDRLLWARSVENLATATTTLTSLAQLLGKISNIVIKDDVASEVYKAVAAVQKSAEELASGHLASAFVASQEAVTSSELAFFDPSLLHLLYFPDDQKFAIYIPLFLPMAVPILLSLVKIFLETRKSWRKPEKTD
UniProt Q9BRZ2: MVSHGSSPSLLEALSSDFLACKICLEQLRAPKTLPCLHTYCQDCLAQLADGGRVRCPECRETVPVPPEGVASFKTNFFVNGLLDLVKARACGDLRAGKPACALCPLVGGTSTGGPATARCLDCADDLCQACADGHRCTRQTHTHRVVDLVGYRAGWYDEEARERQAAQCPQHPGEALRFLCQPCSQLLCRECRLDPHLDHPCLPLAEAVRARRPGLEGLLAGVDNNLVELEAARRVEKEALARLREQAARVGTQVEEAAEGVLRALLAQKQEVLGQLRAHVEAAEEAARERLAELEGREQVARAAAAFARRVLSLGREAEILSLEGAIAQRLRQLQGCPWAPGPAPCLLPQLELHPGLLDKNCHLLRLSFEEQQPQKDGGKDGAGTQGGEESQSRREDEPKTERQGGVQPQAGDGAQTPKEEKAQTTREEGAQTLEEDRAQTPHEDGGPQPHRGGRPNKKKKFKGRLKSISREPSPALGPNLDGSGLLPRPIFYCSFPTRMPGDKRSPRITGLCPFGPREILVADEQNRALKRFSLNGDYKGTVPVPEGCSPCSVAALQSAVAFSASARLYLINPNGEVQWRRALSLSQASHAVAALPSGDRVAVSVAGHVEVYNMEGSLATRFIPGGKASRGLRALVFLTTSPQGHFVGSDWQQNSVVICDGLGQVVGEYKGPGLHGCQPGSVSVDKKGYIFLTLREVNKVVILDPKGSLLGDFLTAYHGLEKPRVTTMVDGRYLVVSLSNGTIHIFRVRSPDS
UniProt Q96RN5: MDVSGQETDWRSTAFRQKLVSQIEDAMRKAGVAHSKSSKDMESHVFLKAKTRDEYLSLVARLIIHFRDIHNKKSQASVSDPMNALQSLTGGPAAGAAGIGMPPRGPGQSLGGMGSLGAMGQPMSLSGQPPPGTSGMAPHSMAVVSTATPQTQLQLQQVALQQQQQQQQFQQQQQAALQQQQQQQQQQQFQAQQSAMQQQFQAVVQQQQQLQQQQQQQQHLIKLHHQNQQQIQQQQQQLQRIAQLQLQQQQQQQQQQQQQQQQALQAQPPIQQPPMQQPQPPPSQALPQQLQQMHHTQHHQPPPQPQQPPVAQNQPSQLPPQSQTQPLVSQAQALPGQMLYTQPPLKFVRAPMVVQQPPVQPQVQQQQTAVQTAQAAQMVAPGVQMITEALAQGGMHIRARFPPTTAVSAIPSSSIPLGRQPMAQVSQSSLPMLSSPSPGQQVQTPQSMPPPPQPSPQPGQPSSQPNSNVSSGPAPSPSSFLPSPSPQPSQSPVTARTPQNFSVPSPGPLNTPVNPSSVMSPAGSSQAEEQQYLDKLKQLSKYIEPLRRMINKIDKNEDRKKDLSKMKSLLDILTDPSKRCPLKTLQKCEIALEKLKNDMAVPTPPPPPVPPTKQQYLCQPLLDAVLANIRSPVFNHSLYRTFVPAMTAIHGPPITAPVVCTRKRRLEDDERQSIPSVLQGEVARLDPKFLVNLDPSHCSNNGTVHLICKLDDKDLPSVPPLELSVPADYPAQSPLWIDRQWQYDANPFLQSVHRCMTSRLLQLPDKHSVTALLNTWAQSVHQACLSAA
UniProt Q9BSC4: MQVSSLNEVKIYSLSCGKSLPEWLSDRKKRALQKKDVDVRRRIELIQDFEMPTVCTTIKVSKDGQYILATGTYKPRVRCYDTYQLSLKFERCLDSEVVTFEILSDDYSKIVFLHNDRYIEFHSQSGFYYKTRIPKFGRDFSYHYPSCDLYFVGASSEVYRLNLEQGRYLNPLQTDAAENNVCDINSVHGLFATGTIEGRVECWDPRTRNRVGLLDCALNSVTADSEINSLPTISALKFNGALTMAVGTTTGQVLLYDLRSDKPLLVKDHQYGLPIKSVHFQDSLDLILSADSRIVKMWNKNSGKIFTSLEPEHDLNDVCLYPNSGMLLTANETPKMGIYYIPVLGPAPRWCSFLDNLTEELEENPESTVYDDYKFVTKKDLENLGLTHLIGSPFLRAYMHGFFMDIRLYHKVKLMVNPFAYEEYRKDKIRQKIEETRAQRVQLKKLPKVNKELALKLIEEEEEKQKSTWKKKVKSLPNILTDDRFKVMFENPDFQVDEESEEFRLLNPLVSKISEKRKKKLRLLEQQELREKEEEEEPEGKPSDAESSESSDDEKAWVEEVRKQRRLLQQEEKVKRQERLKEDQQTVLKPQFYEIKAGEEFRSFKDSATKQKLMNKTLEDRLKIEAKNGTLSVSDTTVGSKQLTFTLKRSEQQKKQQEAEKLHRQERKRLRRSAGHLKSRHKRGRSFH
UniProt Q9BTE1, whole entry: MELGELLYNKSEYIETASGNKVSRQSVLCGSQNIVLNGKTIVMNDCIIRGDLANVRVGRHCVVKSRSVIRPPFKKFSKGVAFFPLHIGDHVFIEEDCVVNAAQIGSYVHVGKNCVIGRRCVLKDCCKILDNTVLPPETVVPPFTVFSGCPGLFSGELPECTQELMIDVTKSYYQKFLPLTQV
UniProt Q9BWJ5: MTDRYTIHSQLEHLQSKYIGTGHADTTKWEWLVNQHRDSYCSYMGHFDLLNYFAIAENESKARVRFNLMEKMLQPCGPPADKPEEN
UniProt Q99733: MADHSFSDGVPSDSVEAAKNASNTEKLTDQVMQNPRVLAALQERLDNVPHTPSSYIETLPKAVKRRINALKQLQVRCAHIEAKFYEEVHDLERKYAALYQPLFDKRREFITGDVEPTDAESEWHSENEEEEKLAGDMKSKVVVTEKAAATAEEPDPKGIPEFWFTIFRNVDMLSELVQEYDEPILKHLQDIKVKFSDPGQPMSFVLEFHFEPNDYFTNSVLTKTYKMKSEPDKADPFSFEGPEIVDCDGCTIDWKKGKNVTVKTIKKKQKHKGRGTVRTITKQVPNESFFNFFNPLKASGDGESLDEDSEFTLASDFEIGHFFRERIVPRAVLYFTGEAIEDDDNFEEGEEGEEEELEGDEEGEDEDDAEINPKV
UniProt Q96SD1, whole entry: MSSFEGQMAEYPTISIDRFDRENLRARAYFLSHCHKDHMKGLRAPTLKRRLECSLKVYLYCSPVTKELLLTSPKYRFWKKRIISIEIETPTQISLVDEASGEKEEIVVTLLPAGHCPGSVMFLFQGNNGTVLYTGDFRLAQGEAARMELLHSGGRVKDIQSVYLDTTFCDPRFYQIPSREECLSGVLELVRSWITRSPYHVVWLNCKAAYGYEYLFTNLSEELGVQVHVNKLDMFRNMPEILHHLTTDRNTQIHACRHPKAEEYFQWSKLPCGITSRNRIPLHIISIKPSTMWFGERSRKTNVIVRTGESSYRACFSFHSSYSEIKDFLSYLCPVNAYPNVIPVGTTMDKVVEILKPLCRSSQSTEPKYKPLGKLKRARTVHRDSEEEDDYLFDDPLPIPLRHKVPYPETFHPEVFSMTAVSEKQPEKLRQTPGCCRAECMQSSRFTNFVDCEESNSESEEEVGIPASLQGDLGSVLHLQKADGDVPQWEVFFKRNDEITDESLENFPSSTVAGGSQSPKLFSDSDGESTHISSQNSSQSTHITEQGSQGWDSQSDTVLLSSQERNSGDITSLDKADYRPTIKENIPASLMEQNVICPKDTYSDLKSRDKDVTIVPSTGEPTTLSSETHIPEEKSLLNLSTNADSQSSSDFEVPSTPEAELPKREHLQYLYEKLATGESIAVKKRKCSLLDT
UniProt Q9BYB4: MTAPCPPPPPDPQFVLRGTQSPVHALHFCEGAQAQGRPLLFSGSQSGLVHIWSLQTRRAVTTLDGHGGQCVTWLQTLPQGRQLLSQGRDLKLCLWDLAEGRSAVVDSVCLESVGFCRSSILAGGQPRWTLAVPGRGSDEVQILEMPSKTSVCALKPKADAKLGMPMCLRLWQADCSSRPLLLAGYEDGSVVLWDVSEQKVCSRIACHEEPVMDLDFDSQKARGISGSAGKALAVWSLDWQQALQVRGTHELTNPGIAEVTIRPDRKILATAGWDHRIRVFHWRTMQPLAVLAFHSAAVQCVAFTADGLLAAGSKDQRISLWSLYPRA
UniProt Q9BWT3: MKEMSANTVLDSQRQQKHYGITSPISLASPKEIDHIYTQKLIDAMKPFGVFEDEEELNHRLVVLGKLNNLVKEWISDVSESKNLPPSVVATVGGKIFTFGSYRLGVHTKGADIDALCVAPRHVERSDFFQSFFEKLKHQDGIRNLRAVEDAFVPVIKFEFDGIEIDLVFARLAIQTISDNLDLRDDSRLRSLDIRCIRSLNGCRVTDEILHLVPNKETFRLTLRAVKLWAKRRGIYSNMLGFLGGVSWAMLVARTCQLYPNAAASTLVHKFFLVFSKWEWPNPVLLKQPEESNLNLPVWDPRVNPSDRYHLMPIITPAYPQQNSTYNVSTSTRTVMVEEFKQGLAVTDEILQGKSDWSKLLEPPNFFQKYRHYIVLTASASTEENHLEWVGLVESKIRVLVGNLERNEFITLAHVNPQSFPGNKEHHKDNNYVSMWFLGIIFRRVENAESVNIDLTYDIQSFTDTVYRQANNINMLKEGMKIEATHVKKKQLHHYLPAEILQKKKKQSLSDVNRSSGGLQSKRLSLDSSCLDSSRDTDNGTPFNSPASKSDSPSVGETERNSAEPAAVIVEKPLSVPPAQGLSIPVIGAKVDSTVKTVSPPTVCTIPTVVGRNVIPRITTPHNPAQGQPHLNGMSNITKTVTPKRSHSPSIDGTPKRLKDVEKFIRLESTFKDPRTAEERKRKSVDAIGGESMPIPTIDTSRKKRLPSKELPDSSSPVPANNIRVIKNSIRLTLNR

Compound: Nc1ncnc2c1ncn2[C@@H]1O[C@H](COP(=O)(O)OP(=O)(O)NP(=O)(O)O)[C@@H](O)[C@H]1O [adenylyl imidodiphosphate]
Assay: NP40-soluble protein abundance relative to vehicle (solubility fold change) (ratio); higher = more soluble protein in presence of AMP-PNP
In short: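 Crude Jurkat lysate, prepared by Dounce homogenisation, was exposed to eight concentrations from 0.1 to 10 mM for 10 min at room temperature and then 3 min at 37 °C. Solubilisation used 0.8% NP40 with benzonase for 60 min at 4 °C, followed by ultracentrifugation and TMT labelling of the supernatant for LC-MS/MS. After vsn normalisation of intensities, each value is the fold change against the detergent-processed vehicle within each replicate, across three independent experiments.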

Target	NP40-soluble protein abundance (concentration: 1mM)	NP40-soluble protein abundance (concentration: 2mM)	NP40-soluble protein abundance (concentration: 4mM)	NP40-soluble protein abundance (concentration: 6mM)	NP40-soluble protein abundance (concentration: 8mM)	NP40-soluble protein abundance (concentration: 10mM)
UniProt Q96T51 and related entries	0.989 ± 0.012	1.02 ± 0.02	0.9681 ± 0.0061	0.954 ± 0.037	0.911 ± 0.012	0.944 ± 0.043
NUP88 (UniProt Q99567)	0.981 ± 0.04	0.973 ± 0.021	1.03 ± 0.032	0.978 ± 0.014	1.01 ± 0.039	1.08 ± 0.043
UniProt Q9BUE6 and related entries	0.991 ± 0.012	0.976 ± 0.033	0.968 ± 0.039	1.01 ± 0.047	1.012 ± 0.0095	1.03 ± 0.045
GINS4 (UniProt Q9BRT9)	0.954 ± 0.015	0.965 ± 0.031	0.9378 ± 0.0092	0.9202 ± 0.0076	0.919 ± 0.043	0.883 ± 0.037
UniProt Q99490-2|F8VVT9 and related entries	0.976 ± 0.026	0.941 ± 0.056	1.02 ± 0.035	0.988 ± 0.046	1.01 ± 0.019	1.02 ± 0.042
C7orf50 (UniProt Q9BRJ6)	1.05 ± 0.029	1.03 ± 0.02	1.067 ± 0.0013	1.01 ± 0.036	1.058 ± 0.0046	1.04 ± 0.011
UniProt Q96RT1 and related entries	1.02 ± 0.022	1.026 ± 0.01	1.016 ± 0.007	0.988 ± 0.035	0.97 ± 0.011	0.9896 ± 0.0019
UniProt Q9BU61 and related entries	0.956 ± 0.031	0.898 ± 0.07	0.9403 ± 0.0089	0.957 ± 0.06	0.984 ± 0.052	0.941 ± 0.016
MRPL32 (UniProt Q9BYC8)	0.983 ± 0.051	1.01 ± 0.014	0.9547 ± 0.0081	0.952 ± 0.036	0.942 ± 0.037	0.983 ± 0.017
UniProt Q96TA1 and related entries	0.968 ± 0.022	0.956 ± 0.021	0.98 ± 0.019	1.01 ± 0.054	1.01 ± 0.093	1.01 ± 0.11
SPEN (UniProt Q96T58)	1.09 ± 0.033	1.18 ± 0.087	1.18 ± 0.065	1.21 ± 0.089	1.21 ± 0.11	1.3 ± 0.1
DHRS4 (UniProt Q9BTZ2)	0.935 ± 0.029	0.91 ± 0.029	0.96 ± 0.05	0.996 ± 0.078	0.995 ± 0.048	0.995 ± 0.051
IFT140 (UniProt Q96RY7)	0.995 ± 0.025	0.966 ± 0.046	0.971 ± 0.017	0.944 ± 0.034	0.919 ± 0.018	0.906 ± 0.029
PAFAH2 (UniProt Q99487)	1.01 ± 0.045	0.963 ± 0.05	0.99 ± 0.023	0.973 ± 0.033	0.977 ± 0.01	0.971 ± 0.0095
PARD6B (UniProt Q9BYG5)	1.013 ± 0.0096	0.998 ± 0.022	0.994 ± 0.024	0.986 ± 0.011	0.997 ± 0.029	0.984 ± 0.017
TBCB (UniProt Q99426)	1 ± 0.022	0.963 ± 0.014	0.972 ± 0.035	1.03 ± 0.066	1.05 ± 0.063	1.02 ± 0.045
UniProt Q9BSH4	0.994 ± 0.046	1.01 ± 0.044	1.02 ± 0.053	1.09 ± 0.079	1.07 ± 0.095	1.07 ± 0.058
UniProt Q9BUR4	1.01 ± 0.011	1.04 ± 0.015	1.04 ± 0.017	1.02 ± 0.044	1.01 ± 0.0067	1.05 ± 0.012
UniProt Q9BWF3 and related entries	1.08 ± 0.017	1.11 ± 0.043	1.07 ± 0.094	1.01 ± 0.032	1 ± 0.023	1.04 ± 0.08
UniProt Q99766	0.999 ± 0.019	0.959 ± 0.024	0.99 ± 0.044	0.967 ± 0.03	0.963 ± 0.018	0.979 ± 0.036

Target	NP40-soluble protein abundance (concentration: 1mM)	NP40-soluble protein abundance (concentration: 2mM)	NP40-soluble protein abundance (concentration: 4mM)	NP40-soluble protein abundance (concentration: 6mM)	NP40-soluble protein abundance (concentration: 8mM)	NP40-soluble protein abundance (concentration: 10mM)
UniProt Q9BSW2-2	1.04 ± 0.026	1.08 ± 0.026	1.07 ± 0.014	1.01 ± 0.056	1.01 ± 0.046	1.03 ± 0.059
BUD13 (UniProt Q9BRD0)	1.01 ± 0.027	1.06 ± 0.088	1.04 ± 0.016	1.02 ± 0.017	1.04 ± 0.042	1.08 ± 0.02
UniProt Q9BTD8 and related entries	1.03 ± 0.026	1.07 ± 0.08	1.1 ± 0.045	1.17 ± 0.024	1.272 ± 0.0094	1.32 ± 0.071
UniProt Q9BXS6 and related entries	0.955 ± 0.028	0.979 ± 0.017	0.962 ± 0.055	1 ± 0.047	1.01 ± 0.033	1.05 ± 0.05
PIGS (UniProt Q96S52)	0.9764 ± 0.0075	0.971 ± 0.021	0.983 ± 0.0063	0.987 ± 0.025	0.973 ± 0.03	0.992 ± 0.023
UniProt Q9BW91 and related entries	1.01 ± 0.024	1.04 ± 0.066	1.01 ± 0.02	0.982 ± 0.015	0.974 ± 0.02	0.966 ± 0.051
UniProt Q9BY12 and related entries	1.02 ± 0.028	1.02 ± 0.045	1.04 ± 0.05	1.07 ± 0.06	1.09 ± 0.08	1.09 ± 0.084
UniProt Q96T23 and related entries	1.07 ± 0.026	1.21 ± 0.11	1.32 ± 0.061	1.53 ± 0.18	1.67 ± 0.21	1.93 ± 0.25
DDX23 (UniProt Q9BUQ8)	1.05 ± 0.038	1.05 ± 0.047	1.07 ± 0.059	1.14 ± 0.091	1.2 ± 0.083	1.3 ± 0.17
TRIM56 (UniProt Q9BRZ2)	0.975 ± 0.012	0.975 ± 0.056	0.967 ± 0.048	0.935 ± 0.062	0.897 ± 0.072	0.927 ± 0.081
UniProt Q9BSJ8 and related entries	0.998 ± 0.036	0.925 ± 0.078	0.979 ± 0.012	0.9491 ± 0.0033	0.96 ± 0.014	0.912 ± 0.015
UniProt Q9BTA9 and related entries	1.04 ± 0.018	1.11 ± 0.095	1.03 ± 0.03	1.04 ± 0.024	1.04 ± 0.034	1.05 ± 0.028
PNKP (UniProt Q96T60)	1.02 ± 0.041	1.02 ± 0.054	1.1 ± 0.071	1.18 ± 0.021	1.23 ± 0.047	1.22 ± 0.079
UniProt Q96RN5 and related entries	1.02 ± 0.035	1.09 ± 0.14	1.01 ± 0.055	0.982 ± 0.022	0.995 ± 0.027	0.982 ± 0.03
UniProt Q9BX67	0.9896 ± 0.0023	1.02 ± 0.038	0.996 ± 0.011	1.022 ± 0.01	1.01 ± 0.012	1.04 ± 0.057
UniProt Q9BSC4 and related entries	0.986 ± 0.021	1.01 ± 0.044	0.989 ± 0.028	1.02 ± 0.021	1.03 ± 0.024	1.08 ± 0.055
UniProt Q9BSI4 and related entries	1.04 ± 0.017	1.04 ± 0.034	1.08 ± 0.049	1.09 ± 0.073	1.062 ± 0.0072	1.07 ± 0.068
CDC5L (UniProt Q99459)	1.04 ± 0.036	1.09 ± 0.075	1.08 ± 0.031	1.12 ± 0.073	1.13 ± 0.076	1.2 ± 0.11
UniProt Q9BUH6	1.06 ± 0.024	1.11 ± 0.051	1.089 ± 0.007	1.11 ± 0.021	1.08 ± 0.023	1.1 ± 0.05
DCTN5 (UniProt Q9BTE1)	0.955 ± 0.016	0.948 ± 0.04	0.972 ± 0.048	0.9842 ± 0.0041	1.02 ± 0.016	1.02 ± 0.064

Target	NP40-soluble protein abundance (concentration: 1mM)	NP40-soluble protein abundance (concentration: 2mM)	NP40-soluble protein abundance (concentration: 4mM)	NP40-soluble protein abundance (concentration: 6mM)	NP40-soluble protein abundance (concentration: 8mM)	NP40-soluble protein abundance (concentration: 10mM)
DSCC1 (UniProt Q9BVC3)	0.994 ± 0.016	0.968 ± 0.035	0.995 ± 0.045	0.977 ± 0.017	0.974 ± 0.021	0.949 ± 0.025
SF3B5 (UniProt Q9BWJ5)	0.95 ± 0.028	0.976 ± 0.066	0.97 ± 0.052	0.973 ± 0.01	0.984 ± 0.048	1.02 ± 0.054
MRI1 (UniProt Q9BV20)	0.9999 ± 0.0086	1.02 ± 0.035	0.9968 ± 0.0072	0.98 ± 0.016	0.983 ± 0.043	0.962 ± 0.031
UniProt Q99733 and related entries	1.02 ± 0.012	1.04 ± 0.076	1 ± 0.023	1.05 ± 0.071	1.05 ± 0.07	1.07 ± 0.1
UniProt Q96SK2 and related entries	0.99 ± 0.05	1.02 ± 0.049	1.02 ± 0.046	1.05 ± 0.048	1.05 ± 0.035	1.13 ± 0.061
UniProt Q9BQP7	1.04 ± 0.025	1.1 ± 0.047	1.06 ± 0.053	1.009 ± 0.0084	1 ± 0.028	1.02 ± 0.052
UniProt Q96SD1 and related entries	1.01 ± 0.027	1.06 ± 0.1	0.997 ± 0.065	0.994 ± 0.046	0.952 ± 0.026	0.97 ± 0.032
NIPSNAP1 (UniProt Q9BPW8)	0.94 ± 0.05	0.873 ± 0.075	0.943 ± 0.028	0.954 ± 0.08	1.02 ± 0.036	0.948 ± 0.021
HEMGN (UniProt Q9BXL5)	0.999 ± 0.026	1.05 ± 0.066	1.017 ± 0.0072	1 ± 0.021	0.992 ± 0.018	0.991 ± 0.014
UniProt Q9BTT0 and related entries	1.01 ± 0.03	1.06 ± 0.084	0.964 ± 0.046	0.9461 ± 0.004	0.9134 ± 0.0026	0.907 ± 0.043
UniProt Q9BRP4 and related entries	0.936 ± 0.021	0.901 ± 0.084	0.92 ± 0.039	0.921 ± 0.03	0.925 ± 0.05	0.909 ± 0.036
PIK3R4 (UniProt Q99570)	0.959 ± 0.022	0.917 ± 0.078	0.935 ± 0.017	0.917 ± 0.04	0.929 ± 0.033	0.879 ± 0.038
RBCK1 (UniProt Q9BYM8)	1.005 ± 0.0061	0.989 ± 0.036	0.974 ± 0.035	0.928 ± 0.013	0.911 ± 0.016	0.935 ± 0.032
GNB1L (UniProt Q9BYB4)	0.994 ± 0.012	0.944 ± 0.08	0.977 ± 0.011	0.951 ± 0.012	0.975 ± 0.02	0.934 ± 0.03
UniProt Q99640 and related entries	0.99 ± 0.024	1 ± 0.013	0.991 ± 0.011	0.962 ± 0.039	0.919 ± 0.023	0.951 ± 0.04
MED10 (UniProt Q9BTT4)	1.01 ± 0.031	1.04 ± 0.037	0.999 ± 0.047	1 ± 0.038	0.992 ± 0.041	0.992 ± 0.035
UniProt Q9BRR9-2|Q9BRR9-4|Q9BRR9-5|R4GN15	0.939 ± 0.033	0.943 ± 0.026	0.976 ± 0.028	0.993 ± 0.023	0.961 ± 0.013	0.984 ± 0.005
BCL2L13 (UniProt Q9BXK5)	1.02 ± 0.048	1.08 ± 0.023	1.04 ± 0.06	0.987 ± 0.021	0.964 ± 0.031	0.991 ± 0.032
UniProt Q9BWT3 and related entries	1 ± 0.038	1.04 ± 0.045	1.05 ± 0.018	1.05 ± 0.029	1.05 ± 0.05	1.08 ± 0.028
UniProt Q96S66 and related entries	0.987 ± 0.028	1.01 ± 0.048	0.98 ± 0.03	1 ± 0.015	0.987 ± 0.059	1 ± 0.048

Complete entries, quoted from the list. Order of values: NP40-soluble protein abundance (concentration: 1mM)	NP40-soluble protein abundance (concentration: 2mM)	NP40-soluble protein abundance (concentration: 4mM)	NP40-soluble protein abundance (concentration: 6mM)	NP40-soluble protein abundance (concentration: 8mM)	NP40-soluble protein abundance (concentration: 10mM)
BCL2L13 (UniProt Q9BXK5) as listed: 1.02 ± 0.048	1.08 ± 0.023	1.04 ± 0.06	0.987 ± 0.021	0.964 ± 0.031	0.991 ± 0.032
SF3B5 (UniProt Q9BWJ5) as listed: 0.95 ± 0.028	0.976 ± 0.066	0.97 ± 0.052	0.973 ± 0.01	0.984 ± 0.048	1.02 ± 0.054
MED10 (UniProt Q9BTT4) as listed: 1.01 ± 0.031	1.04 ± 0.037	0.999 ± 0.047	1 ± 0.038	0.992 ± 0.041	0.992 ± 0.035
